The record followed here is patent US20110275102A1.

Chains of the proteins cited; added tags and fusions are not shown. Lines headed by an entry give the natural chain unless they say otherwise; changes in a name come on top.
UniProt P31749: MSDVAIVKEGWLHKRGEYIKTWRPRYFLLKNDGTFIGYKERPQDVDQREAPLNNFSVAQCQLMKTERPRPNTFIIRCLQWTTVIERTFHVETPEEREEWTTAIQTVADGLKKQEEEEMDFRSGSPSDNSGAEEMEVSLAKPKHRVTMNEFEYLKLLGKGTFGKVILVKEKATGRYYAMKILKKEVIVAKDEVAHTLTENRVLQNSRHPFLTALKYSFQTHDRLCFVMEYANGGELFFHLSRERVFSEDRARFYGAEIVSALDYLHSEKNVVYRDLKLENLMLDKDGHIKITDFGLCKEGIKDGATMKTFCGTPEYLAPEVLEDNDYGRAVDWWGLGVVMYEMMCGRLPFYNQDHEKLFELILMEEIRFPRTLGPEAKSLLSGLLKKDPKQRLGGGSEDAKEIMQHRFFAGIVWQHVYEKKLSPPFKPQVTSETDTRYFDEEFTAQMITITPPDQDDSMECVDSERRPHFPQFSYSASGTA

These are yes or no findings as the source states them, for the method shown. Some results given as binding are weak or reduced against the parent protein; the word gives no strength.

This assay deals with GST-IMPDH: GST fused to the complete human IMPDH type II (pGEX-IMPDH) (human) (UniProt P12268). Briefly: in vitro binding to GST fusion on glutathione-agarose beads, Western blot with RACα antiserum.

As to “full-length human RACα produced in the baculovirus system (Sf9 cells) (from UniProt P31749 1-480) (enzyme)”, the binding entry is “binds”.
